PubChem BioAssay AID743121 | NCATS | 2013
Test: 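Genes whose silencing strengthens cell killing by camptothecin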 (primary screen). Cells: MDA-MB-231 cells, a human breast cancer line. Knock-down reagent: single siRNA against human genes, 20 nM siRNA (0.8 pmol per well). Duration: 120 h (drug added 48 h after transfection, read 72 h later). Conditions: camptothecin 20 nM (about EC30) for 72 h; vehicle 0.1% DMSO in parallel plates. Measured: 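Cell viability by ATP luminescence (CellTiter-Glo) as % of non-targeting siRNA wells, and the log2 ratio of viability without drug over viability with camptothecin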. Scale: log2 vehicle/camptothecin viability: higher = stronger sensitisation to camptothecin. Rule for the call: 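Each gene scored by redundant siRNA activity (RSA) over its individual siRNA ratios; a gene is called active at p < 0.001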.
The deposit covers about 26,000 reagents; this is a part drawn at random. 167 of all reagents (0.63%) count as active. 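Calls are per gene from RSA p-values that are not deposited; an individual active-marked siRNA can sensitise only weakly.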 The numbers tell different reagents against one gene apart. Further read-outs or replicates are left out here.

| log2 vehicle/camptothecin viability | outcome | gene | reagent no. |
| --- | --- | --- | --- |
| -0.0223 | inactive | PIGK (phosphatidylinositol glycan anchor biosynthesis class K) | 1 |
| -0.239 | inactive | PIGK (phosphatidylinositol glycan anchor biosynthesis class K) | 2 |
| -0.313 | inactive | PIGK (phosphatidylinositol glycan anchor biosynthesis class K) | 3 |
| -0.265 | inactive | PIGK (phosphatidylinositol glycan anchor biosynthesis class K) | 4 |
| -0.15 | inactive | ADD1 (adducin 1) | 1 |
| 0.913 | inactive | ADD1 (adducin 1) | 2 |
| 0.147 | inactive | ADD1 (adducin 1) | 3 |
| -0.403 | inactive | ADD1 (adducin 1) | 4 |
| -0.255 | inactive | LDLRAD2 (low density lipoprotein receptor class A domain containing 2) | 1 |
| -0.609 | inactive | LDLRAD2 (low density lipoprotein receptor class A domain containing 2) | 2 |
| -0.826 | inactive | LDLRAD2 (low density lipoprotein receptor class A domain containing 2) | 3 |
| 0.0332 | inactive | LDLRAD2 (low density lipoprotein receptor class A domain containing 2) | 4 |
| 0.0508 | inactive | SLC9B1 | 1 |
| -0.172 | inactive | SLC9B1 | 2 |
| -0.409 | inactive | SLC9B1 | 3 |
| -0.0357 | inactive | SLC9B1 | 4 |
| -0.393 | inactive | CD79B (CD79b molecule) | 1 |
| 0.659 | inactive | CD79B (CD79b molecule) | 2 |
| -0.224 | inactive | CD79B (CD79b molecule) | 3 |
| -0.472 | inactive | PYGB (glycogen phosphorylase B) | 1 |
| -0.443 | inactive | PYGB (glycogen phosphorylase B) | 2 |
| -0.127 | inactive | PYGB (glycogen phosphorylase B) | 3 |
| -0.247 | inactive | PYGB (glycogen phosphorylase B) | 4 |
| -0.681 | inactive | GPR101 (G protein-coupled receptor 101) | 1 |
| 0.0748 | inactive | GPR101 (G protein-coupled receptor 101) | 2 |
| -0.231 | inactive | GPR101 (G protein-coupled receptor 101) | 3 |
| -0.176 | inactive | GPR101 (G protein-coupled receptor 101) | 4 |
| -0.388 | inactive | NOTCH2 (notch receptor 2) | 1 |
| -0.449 | inactive | NOTCH2 (notch receptor 2) | 2 |
| -0.0927 | inactive | NOTCH2 (notch receptor 2) | 3 |
| -0.245 | inactive | NOTCH2 (notch receptor 2) | 4 |
| -0.398 | inactive | TXNDC9 (thioredoxin domain containing 9) | 1 |
| -0.2 | inactive | TXNDC9 (thioredoxin domain containing 9) | 2 |
| -0.0932 | inactive | TXNDC9 (thioredoxin domain containing 9) | 3 |
| -0.0376 | inactive | TXNDC9 (thioredoxin domain containing 9) | 4 |
| -0.0768 | inactive | TXNDC9 (thioredoxin domain containing 9) | 5 |
| -0.0314 | inactive | KREMEN1 (kringle containing transmembrane protein 1) | 1 |
| 0.437 | inactive | KREMEN1 (kringle containing transmembrane protein 1) | 2 |
| 0.956 | inactive | KREMEN1 (kringle containing transmembrane protein 1) | 3 |
| -0.00752 | inactive | TWNK (twinkle mtDNA helicase) | 1 |
| -0.425 | inactive | TWNK (twinkle mtDNA helicase) | 2 |
| -0.305 | inactive | TWNK (twinkle mtDNA helicase) | 3 |
| -0.392 | inactive | TWNK (twinkle mtDNA helicase) | 4 |
| 1.01 | inactive | LIN7A (lin-7 cell polarity scaffold A) | 1 |
| -0.0161 | inactive | LIN7A (lin-7 cell polarity scaffold A) | 2 |
| -0.0264 | inactive | LIN7A (lin-7 cell polarity scaffold A) | 3 |
| -0.107 | inactive | LIN7A (lin-7 cell polarity scaffold A) | 4 |
